Data taken from PubChem BioAssay AID463205 (Broad Institute, 2010).
In all, about 2,400 compounds went through this assay and about 20 (0.8%) were called active.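 How the source made its calls: active means AC50 no more than ten times the highest tested concentration, or full inhibition at every dose giving a flat fit (cut at about 30 µM in these data); inconclusive means flat fit with activity between 30% and 70%, or poor-quality invalid fit; inactive means AC50 more than ten times the top tested dose.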 Some of the results follow.

Experiment: luciferase-based ADP detection interference – biochemical, luminescence, cell-free, homogeneous, artefact control for GSK-3a inhibitor project, dose response (AID 463205);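 further: kinase-free counter-screen against the ADP-Glo detection reagents only; potency is for inhibitors that reduce the luminescence signal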
Conditions: Cell-free ADP-Glo detection reagents, 5 uM ADP

AC50, inactive:
COc1ccc(/C=N\NC(=O)c2ccccc2Br)cc1COc1ccccc1 > 30 µM
COc1ccc(CC(=O)Oc2cc(C)ccc2C)cc1 > 30 µM
CSc1ccc(-c2cc(=O)c3ccccc3o2)cc1 > 30 µM
COc1cccc(/C=N/NC(=O)c2nnn(-c3nonc3N)c2-c2cccs2)c1 > 30 µM
NC(=O)c1ccc(NCCCN2CCOCC2)c([N+](=O)[O-])c1 > 30 µM
O=C(c1ccc2c3n(nc2c1)-c1ccc(Cl)cc1CO3)N1CCOCC1 > 30 µM
CC(C)NC(=O)Nc1cccc(Cl)c1 > 30 µM
CCOC(=O)C1CCN(c2c(C(=O)c3ccccc3)cnc3ccc(CC)cc23)CC1 > 30 µM
COc1ccc(Nc2nc(N)nc(COc3ccc(OC)cc3)n2)cc1 > 30 µM
Oc1ccc(-c2nc3ncccn3c2Nc2ccc3c(c2)OCCO3)cc1 > 30 µM
COc1ccc(-n2c(SCC(N)=O)nnc2-c2ccco2)cc1 > 30 µM
N#Cc1cc(Cl)c(NCC2CCCO2)cc1C#N (stereo not given) > 30 µM
Cn1cnc(C(=O)NC2CCN(C(=O)OC(C)(C)C)CC2)c1C(=O)NC1CCN(C(=O)OC(C)(C)C)CC1 > 30 µM
COc1ccc(NC(=O)CN(C)S(=O)(=O)c2cnc[nH]2)cc1 > 30 µM
CC(/C=N/NC(=O)c1nnn(-c2nonc2N)c1C(C)C)=C\c1ccccc1 > 30 µM
O=c1[nH]c2c(s1)C(c1ccccc1)C1C3CCC(C3)C1S2 (stereo not given) > 30 µM
N#C/C(=N\Nc1ccc(Cl)cc1)C(N)=S > 30 µM
CCCCNc1nc(N)nc(-c2cc(Cl)ccc2O)n1 > 30 µM
COc1c2ccccc2c(OC)c2ccccc12 > 30 µM
CCN(CC)Cc1c(C(=O)N/N=C(\C)c2ccncc2)nnn1-c1nonc1N > 30 µM
COc1ccc2c3c(cccc13)C(=O)CC2 > 30 µM
COc1cccc(NC(=O)CN(C)C(=O)C23CC4CC(CC(Cl)(C4)C2)C3)c1 > 30 µM
COc1ccc(C(=O)NC(=O)CSc2nnc(-c3ccco3)n2-c2ccccc2)cc1 > 30 µM
COc1ccc(COC(=O)C2=C(C)NC(=O)NC2c2cccc(OC)c2OC)cc1 (stereo not given) > 30 µM
COc1cc(/C=N/Nc2nc(=O)[nH]nc2C)cc([N+](=O)[O-])c1O > 30 µM
S=C(NCc1ccc2c(c1)OCO2)NCc1ccc2c(c1)OCO2 > 30 µM
COc1ccc(NC(=O)c2ccc(NCC3CCCO3)c([N+](=O)[O-])c2)cc1 (stereo not given) > 30 µM
Cc1nnc(SCC(=O)N(C(C)C)C(C)C)nc1C > 30 µM
O=[N+]([O-])c1ccc(O)c(CN2CCCCCC2)c1 > 30 µM
COc1ccc(Cl)cc1Nc1nc(N)c2ccccc2n1 > 30 µM
O=C(Nc1nc2c(s1)CCCC2)c1ccc(Br)o1 > 30 µM
Nc1nc(NCCc2ccccc2)nc(NCc2ccccc2)c1[N+](=O)[O-] > 30 µM
Cc1onc(-c2ccccc2Cl)c1C(=O)Nc1cccc(-c2cn3cccnc3n2)c1 > 30 µM
CC1(C)CC(=O)C(C(C2=C(O)CC(C)(C)CC2=O)c2cccc(O)c2)C(=O)C1 (stereo not given) > 30 µM
O=c1ccc2ccccc2o1 > 30 µM
CCCC(=O)NC(=S)Nc1cccc(C(C)=O)c1 > 30 µM
Cc1csc(NC(=O)C2CC(=O)N(c3ccc4c(c3)OCCO4)C2)n1 (stereo not given) > 30 µM
COC(=O)[C@@H](NC(=O)NCc1ccc(F)cc1)C(C)C > 30 µM
Cc1onc(-c2ccccc2)c1C(=O)NCCN1CCOCC1 > 30 µM
CCOC(=O)c1nc2sc3c(c2c(=O)[nH]1)CCC(C)C3 (stereo not given) > 30 µM
CCCCn1c(SCC(=O)Nc2sc3c(c2C(N)=O)CCC3)nnc1-c1ccccc1 > 30 µM
CN1CCN(c2nc(NCc3ccco3)nc(N)c2[N+](=O)[O-])CC1 > 30 µM
Nc1nc(NCc2ccccc2)nc(NCc2ccccc2)c1[N+](=O)[O-] > 30 µM
CC(C)N=C(NC#N)SCc1ccc(Br)cc1 > 30 µM
CCOC(=O)c1[nH]c2c(c1-c1ccccc1)C(=O)CC(c1ccc(OCC)cc1)C2 (stereo not given) > 30 µM
O=c1c2ccccc2[nH]c2ccc(O)cc12 > 30 µM
CCOC(=O)C1=C(CC)OC(N)=C(C#N)C1c1ccc(NC(C)=O)cc1 (stereo not given) > 30 µM
COC(=O)CCCNc1ncccc1[N+](=O)[O-] > 30 µM
Cc1[nH]nc2c1-c1nc3ccccc3nc1C(C)(C)C2 > 30 µM
Cc1cccc(OCC(=O)Nc2ccc3c(c2)C(=O)NC3=O)c1 > 30 µM
Nc1nc(NCCOCCO)nc(N2CCCCCC2)c1[N+](=O)[O-] > 30 µM
Fc1cccc(/C=N/Nc2ccccn2)c1 > 30 µM
CCOC(=O)C1CCCN(c2c(C(=O)c3ccccc3)cnc3ccccc23)C1 (stereo not given) > 30 µM
CCNc1ccccc(C(=O)/C=C/c2ccc3c(c2)OCO3)c1=O > 30 µM
Clc1cccc(Nc2ncnc3c2cnn3-c2ccccc2)c1 > 30 µM
CCc1ccc(/C=c2\s/c(=C\C(=O)C(C)(C)C)[nH]c2=O)cc1 > 30 µM
CCOC(=O)c1c(-c2cccc([N+](=O)[O-])c2)csc1N > 30 µM
Cc1cc(C)c(NC(=O)C2CCCN2CCOC(=O)c2cccc([N+](=O)[O-])c2)c(C)c1 (stereo not given) > 30 µM
CCOc1cccc(-c2c(C(=O)N/N=C(\C)c3ccccn3)nnn2-c2nonc2N)c1 > 30 µM
Fc1ccc(/C=N/Nc2nccnc2Cl)cc1 > 30 µM
Cc1nc(Nc2ccc(C(=O)O)cc2)nc(Nc2ccc(C(=O)O)cc2)c1[N+](=O)[O-] > 30 µM
CC(C)(C)NC(=O)/C(=C\c1ccccc1F)NC(=O)c1ccc([N+](=O)[O-])cc1 > 30 µM
COCCNC(=O)Cn1cnc([N+](=O)[O-])n1 > 30 µM
O=C(NC1C=CS(=O)(=O)C1)c1sc2ccccc2c1Cl (stereo not given) > 30 µM
O=[N+]([O-])c1cccc(-c2ccn[nH]2)c1 > 30 µM
Cc1nc2ccc3[nH]snc3c2n1 > 30 µM
NNC(=O)/C(=N/Nc1ccccc1)S(=O)(=O)c1ccc(Cl)cc1 > 30 µM
CCCOc1ccc(-c2c(C(=O)N/N=C(\C)c3ccncc3)nnn2-c2nonc2N)cc1 > 30 µM
CCOC(=O)c1cnn(Cc2ccccc2Cl)c1N > 30 µM
Cc1ccc(-c2nnc(N3CCN(C(=O)COc4ccccc4)CC3)c3ccccc23)cc1 > 30 µM
Nn1c(SCc2ccccc2F)nnc1-c1ccncc1 > 30 µM
Cc1csc(NC(=O)C2CCCN(S(=O)(=O)c3cnc[nH]3)C2)n1 (stereo not given) > 30 µM
Cc1ccc(NC(=O)CSCc2ccco2)cc1 > 30 µM
Cc1ccc(CNc2nc(N)c([N+](=O)[O-])c(NCc3ccccc3)n2)cc1 > 30 µM
COc1cc(-c2cc(=O)c3c(O)cc(O)cc3o2)ccc1O > 30 µM
CCOC(=O)c1nnn(-c2nonc2N)c1C > 30 µM
Nc1nc(SCCOc2ccccc2)n[nH]1 > 30 µM
COc1cccc(Cn2nnc(C(=O)Nc3cc(Cl)ccc3OC)c2N)c1 > 30 µM
O=C(CSc1nnc(SCc2ccc(Cl)cc2)s1)N/N=C/c1ccc(C(=O)O)cc1 > 30 µM
CCN(CC)c1ccc2ccc(=O)oc2c1 > 30 µM
CC1(C)Cc2c(sc3c2C2=NCCN2C=N3)CO1 > 30 µM
COc1cc2sc(C)nc2c2ccccc12 > 30 µM
COc1ccc(C(=O)OCC(=O)Nc2c(C)n(C)n(-c3ccccc3)c2=O)cc1 > 30 µM
CSc1ccc(C2C3(C#N)C(N)=NC4(OCCO4)C23C#N)cc1 (stereo not given) > 30 µM
C[C@H]1CN([C@@H](C)CO)C(=O)c2cccc(NC(=O)c3cnccn3)c2O[C@@H]1CN(C)S(=O)(=O)c1ccc(F)cc1 > 30 µM
CCOc1ccc(-c2nonc2NC(=O)c2ccco2)cc1 > 30 µM
O=C(CSCc1ccc([N+](=O)[O-])cc1)NN=C1CCCCCC1 > 30 µM
CC(Oc1ccccc1)C(=O)Nc1nnc(C2CCCCC2)s1 (stereo not given) > 30 µM
Cc1ccccc1CSc1nnc(-c2ccncc2)n1C > 30 µM
COc1ccccc1NC(=O)CCSc1nnc(-c2ccc(O)cc2)o1 > 30 µM
O=c1[nH]nnc2sc3c(c12)CCCC3 > 30 µM
O=C1/C(=C/c2ccc3c(c2)OCO3)Oc2cc(OCC(=O)N3CCC[C@H]3C(=O)O)ccc21 > 30 µM
Oc1[nH]c2ccccc2c1N=Nc1ccccc1 > 30 µM
CCOC(=O)c1nc(NCc2cccc(OC)c2)c2ccccc2n1 > 30 µM
COc1ccc(-c2csc(Nc3ccc(O)cc3)n2)cc1 > 30 µM

Nothing new here: an excerpt of the list.
AC50, inactive:
CCOC(=O)C1CCCN(c2c(C(=O)c3ccccc3)cnc3ccccc23)C1 (stereo not given) > 30 µM
CCNc1ccccc(C(=O)/C=C/c2ccc3c(c2)OCO3)c1=O > 30 µM
Clc1cccc(Nc2ncnc3c2cnn3-c2ccccc2)c1 > 30 µM
CCc1ccc(/C=c2\s/c(=C\C(=O)C(C)(C)C)[nH]c2=O)cc1 > 30 µM

Looked up one by one from the entries so far:
AC50, inactive:
CCCCNc1nc(N)nc(-c2cc(Cl)ccc2O)n1 > 30 µM
COc1ccc(NC(=O)c2ccc(NCC3CCCO3)c([N+](=O)[O-])c2)cc1 (stereo not given) > 30 µM
